Reference: patent US7459444B2, “Inhibitors of chymase” (Janssen Pharmaceutica N.V., priority 2004, dated 2008)
The structures given here were assigned with low confidence; some may be wrong.

Sequences of proteins named here, by UniProt entry; tags and fusion partners are left off. Residues count along the entry.
UniProt P23946, 22-247 limits assumed: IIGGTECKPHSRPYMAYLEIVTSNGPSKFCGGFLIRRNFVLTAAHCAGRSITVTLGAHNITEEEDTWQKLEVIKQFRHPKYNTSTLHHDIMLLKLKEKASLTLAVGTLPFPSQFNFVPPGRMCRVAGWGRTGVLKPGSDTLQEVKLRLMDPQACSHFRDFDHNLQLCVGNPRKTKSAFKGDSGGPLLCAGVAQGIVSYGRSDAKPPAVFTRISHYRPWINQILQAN

Target: human skin chymase (Homo sapiens, UniProt P23946)
Assay: Enzyme-catalyzed hydrolysis assay (chymase inhibition)
Assay type: biochemical
Settings: read-out: IC50 (μM) Chymase; 10 nM enzyme, 0.7 mM Suc-Ala-Ala-Pro-Phe-pNa, pH 8.0, 37° C., 30 minutes

## O=C(Nc1cc2ccccc2cc1O)C(c1cccc2ccccc12)P(=O)(O)O (stereo not shown)
  IC50: 4.34 µM
